Among the data in PubChem BioAssay AID2685 (National Center for Advancing Translational Sciences (NCATS), 2010) are cell number change and AC50 values, retold here.

SMILES strings stand for the structures. This is one part of the list. Shown are side measurements of this screen, not its main read-out; they come without a call. Most of these compounds were active or inconclusive in the main read-out, so they are no random draw. The note in brackets gives the kind of curve behind each potency; many fits are weak.

As a reminder, the AC50 is the concentration at which the activity in the assay is half-maximal.

The assay is described as follows: qHTS Assay for Lipid Storage Modulators in Drosophila S3 Cells.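 On cell number change: cells counted by Cell Tracker Red CMTPX staining in the red channel.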 The note with it: BODIPY lipid droplet fluorescence, 18-24 h; for cell number change: measured here: cell count max response, cells fed with added oleic acid. Summed up: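 Laser-scanning cytometry quantifies lipid droplet accumulation (500–530 nm total intensity; droplet/cell object ratio) in oleic acid-fed (400 uM added) Drosophila S3 cells treated with a concentration series. 20 uM Triacsin C defined 100% inhibition.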
A general note: qHTS replaces the single test concentration by a dilution series.

Setting [1] is: measured here: lipid fluorescence (Fed channel) AC50, cells fed with added oleic acid.
Where [2] appears, read: measured here: cell number channel AC50, cells fed with added oleic acid.

Regarding `COc1ccccc1N(C)S(=O)(=O)c1ccc(Cl)c(C(=O)Nc2ccncc2)c1`, the cell number change was determined as 2.78%. Besides, under setting [1], the AC50 is 18.4 µM [falling, single point].
For `CCOC(=O)c1[nH]c(C)c(C(=O)OCC)c1C`, the cell number change turned out to be 6.45%. Under setting [1], the AC50 is 0.0366 µM [rising, single point].
Turning to `CC(=O)Nc1cccc(C(=O)OCC(=O)NNC(=O)c2ccc([N+](=O)[O-])cc2)c1`, the cell number change is 13%.
Turning to `CC1CCN(C(=O)/C(=C\c2ccccc2F)NC(=O)c2ccccc2)CC1`, the cell number change is -24.4%.
Regarding `CCOC(=O)N1CCN(C(=O)CCc2c(C)nc3nc(C)nn3c2C)CC1`, the cell number change was -11.9%. For the same compound, under setting [1], the half-maximal activity concentration (AC50) was 3.26 µM [falling, single point].
Consider `CCOC(=O)c1ccccc1NC(=O)N[C@@H](C)C(=O)OC`, for which the cell number change was -59.5%. Besides, the AC50 under setting [2] is 29.1 µM [falling, single point].
For `O=C(CSc1nc(=O)n(CCN2CCOCC2)c2c1CCCC2)Nc1ccc(F)cc1F`, the cell number change is -25%. In addition, under setting [2], the AC50 is 0.58 µM [rising, full curve].
Turning to `CCN(Cc1ccncc1)C(=O)c1cc(COc2ccc(C)c(C)c2)on1`, the cell number change is -27.9%.
Regarding `CCc1ccc(C(=O)CSc2nnc(C3CC3)n2C2CC2)cc1`, the cell number change stood at 15.8%. The AC50 under setting [1] is 0.731 µM [falling, single point].
For the compound `Cc1ccc(NC(=O)CSc2nnc3c(n2)[nH]c2ccccc23)cc1`, the cell number change is -13.3%. The AC50 under setting [1] is 6.51 µM [rising, single point].
`COCCOC(=O)c1[nH]c2c(c1C)C(=O)CC(c1ccc(OC)cc1)C2` (stereo unspecified): the cell number change came out at 7.61%. Further, under setting [1], the half-maximal activity concentration (AC50) is 1.03 µM [rising, full curve].
In the case of `CC(=O)Nc1cc(C(F)(F)F)ccc1OCC1CCCO1` (stereo unspecified), the cell number change was -13.2%.
As to `Cn1nnnc1SCC(=O)N1CCN(c2ccc(Cl)cc2)CC1`, the cell number change is -8.09%.
Regarding `COc1cccc(N2C(=O)CC(NNC(=O)c3cccs3)C2=O)c1` (stereo unspecified), the AC50 under setting [1] was 14.6 µM [rising, partial curve].
With `CN1CCN(S(=O)(=O)c2ccc(N(C)CC(=O)Nc3ccc(F)cc3)nc2)CC1`, the cell number change was -32.7%. The AC50 under setting [2] was 32.6 µM [falling, single point].
Consider `Cc1ccc(CCNC(=O)CS(=O)Cc2nc(-c3cccs3)oc2C)cc1` (stereo unspecified), for which the AC50 under setting [1] was 8.2 µM [rising, partial curve].
As to `Cc1cc(Cl)ccc1OCCCC(=O)NNC(=O)c1ccncc1`, the cell number change is 33%. For the same compound, the AC50 under setting [2] is 16.4 µM [rising, partial curve, poor fit]. Besides, the AC50 under setting [1] is 0.231 µM [rising, full curve, poor fit].
In the case of `COc1cccc(CNC(=O)Cc2csc(Nc3nc(=S)[nH]c4ccccc34)n2)c1`, the cell number change turned out to be 80.2%. Further, under setting [2], the AC50 is 3.26 µM [rising, full curve]. Moreover, the AC50 under setting [1] was 16.4 µM [rising, partial curve, poor fit].
Regarding `CC1(C2CC2)NC(=O)N(CC(=O)Nc2ccccc2C#N)C1=O` (stereo unspecified), the cell number change is -8.84%.
With `CC(Oc1ccccc1)C(=O)OCC(=O)Nc1sccc1C(N)=O` (stereo unspecified), the cell number change was -45.3%. Also, the AC50 under setting [2] was 5.17 µM [falling, full curve]. In addition, the AC50 under setting [1] is 4.61 µM [falling, full curve].
Consider `C/C(CC(=O)Nc1ccc2c(c1)OCCO2)=N\NC(=O)COc1ccccc1`, for which the cell number change was -19.7%.
On to `COc1ccccc1NS(=O)(=O)c1cccc(NC(=O)Nc2ccccc2)c1`, for which the cell number change amounted to 20.6%. The AC50 under setting [1] is 2.31 µM [rising, partial curve].
As to `COc1ccccc1Nc1nn2c(=O)c3ccc(C(=O)N4CCC(C)CC4)cc3nc2s1`, the cell number change was -19.9%. Also, the AC50 under setting [1] is 0.82 µM [falling, full curve].
For `CCN(CC)S(=O)(=O)c1ccc2[nH]c(=O)[nH]c2c1`, the cell number change turned out to be 41.2%. Besides, under setting [2], the AC50 is 2.31 µM [rising, partial curve].
For `O=C(Nc1c(C(=O)N2CCOCC2)cnn1-c1ccccc1Cl)c1ccco1`, the cell number change turned out to be 0.364%. The AC50 under setting [1] is 25.9 µM [falling, partial curve, poor fit].
On to `CSc1ncccc1C(=O)OCC(=O)N(C)C`, for which the AC50 under setting [2] was 0.82 µM [falling, single point].
Regarding `COc1ccccc1NC(=O)N(Cc1ccco1)Cc1cc2cc(C)cc(C)c2[nH]c1=O`, the cell number change worked out at 30.1%. In addition, the AC50 under setting [2] was 0.517 µM [rising, full curve]. Further, under setting [1], the AC50 is 23.1 µM [rising, partial curve].
On to `CCOC(=O)c1c(C)c(/C=N/Nc2ccccc2)n(C)c1C`, for which the cell number change worked out at 1.54%. Besides, the half-maximal activity concentration (AC50) under setting [1] was 6.51 µM [falling, single point].
On to `CCOC(=O)c1ccc(NC(=O)C(CC)(CC)C(=O)OCC)cc1`, for which the cell number change was found to be 10.8%. For the same compound, the AC50 under setting [1] was 4.11 µM [falling, single point].
For `CCCCN(C(=O)c1ccccc1Br)C1CCS(=O)(=O)C1` (stereo unspecified), the cell number change turned out to be 1.85%. Further, under setting [1], the AC50 was 0.651 µM [falling, single point].
`Cc1ccc2c(CN3CC(C)CC(C)C3)cc(=O)oc2c1` (stereo unspecified): the AC50 under setting [1] was 0.58 µM [falling, single point].
Take `COc1cccc(C(C(=O)NC2CCCCC2)N(C(=O)c2ccco2)c2ccccc2OC)c1` (stereo unspecified): the cell number change was -25.6%.
As to `FC(F)(F)c1cc(-c2cccs2)nc(N2CCOCC2)n1`, the cell number change is -6.76%. Also, under setting [1], the AC50 was 9.2 µM [rising, partial curve].
For the compound `CC1CCCC/C1=N\Nc1ccc(S(N)(=O)=O)cc1[N+](=O)[O-]` (stereo unspecified), the cell number change came out at 367%. The AC50 under setting [2] is 25.9 µM [rising, partial curve].
`C/C(=C(\C#N)C(=O)NCCCN1CCOCC1)N(C)C`: the cell number change is -74.3%. Also, the AC50 under setting [2] is 20.6 µM [falling, single point]. For the same compound, the AC50 under setting [1] is 29.1 µM [falling, single point].
As to `O=C(Cn1nnc(-c2ccccc2)n1)N1CCN(S(=O)(=O)c2ccc(Cl)cc2)CC1`, the cell number change was -4.46%. Also, the AC50 under setting [2] is 6.51 µM [rising, single point]. Under setting [1], the AC50 is 5.8 µM [rising, single point].
With `CS(=O)(=O)N1CCN(C(=O)c2ccncc2)CC1`, the cell number change is -17.4%. Besides, the AC50 under setting [2] was 0.326 µM [falling, full curve, poor fit]. Besides, under setting [1], the AC50 is 0.259 µM [falling, full curve, poor fit].
`Cc1[nH]c(=O)c(C(=O)/C=C/c2ccccc2)c2c1CCCC2`: the cell number change is -52.9%. The AC50 under setting [2] was 29.1 µM [falling, single point]. The AC50 under setting [1] was 0.58 µM [falling, single point].
With `Cc1ccc(N(CC(=O)N2CCOCC2)S(C)(=O)=O)cc1Cl`, the cell number change is 1.98%. The AC50 under setting [1] is 0.731 µM [rising, single point].
Regarding `Cn1nnnc1SCC(=O)NC(=O)NCc1ccccc1`, the cell number change came out at 168%. For the same compound, the AC50 under setting [2] was 29.1 µM [rising, single point].
